Our source for the AC50 values is PubChem BioAssay AID662 (National Center for Advancing Translational Sciences (NCATS), 2007).

The list shows a part of the results. Shown are side measurements of this screen, not its main read-out; they come without a call. Most of these compounds were active or inconclusive in the main read-out, so they are no random draw. Words in brackets tell the shape of the fitted curve; partial curves, single points and poor fits give uncertain potencies.

As a reminder, the AC50 is the concentration giving half of the maximal activity seen.

The nature of the experiment: Cell signaling CRE-BLA (Fsk stim). Conditions: CHO CRE-bla reporter (cAMP response element driving beta-lactamase), forskolin EC10, beta-lactamase ratio; measured here: 460 nm blue channel. The essentials: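 CHO CRE-bla cells, overnight plating in Opti-MEM with 0.5% dialyzed FBS; cpd titration + EC10 NKH 477, 3 h 37 °C; CCF4 2 h RT; ex 405/em 460 vs 530 ratio → %Activity, AC50.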
`CCn1c(SCC(=O)Nc2ccccc2N2CCCCC2)nc2c1c(=O)n(C)c(=O)n2C`: the AC50 was 10 µM [rising, partial curve].

In the case of `CCOC(=O)c1cc(C(=O)c2cc(F)ccc2O)coc1=N`, the AC50 is 5.01 µM [falling, single point]. For `Clc1ccc(-c2nnc(SCc3ccon3)o2)c(Cl)c1`, the half-maximal activity concentration (AC50) was 7.94 µM [rising, partial curve]. As to `Cc1nc2cnc(Oc3ccccc3)nc2n(Cc2cccs2)c1=O`, the AC50 was 12.6 µM [rising, partial curve]. In the case of `CCOC(=O)c1cc(-c2nnc(SCC(=O)Nc3ccc(F)cc3)o2)c(C)nc1C` it was 5.01 µM [falling, single point]; in that of `COC(=O)c1c(NC(C)=O)sc2c1CCCC2`, 12.6 µM [rising, single point].

As for `COn1c(SCc2cccnc2)nc2ccccc2c1=O`, the AC50 is 10 µM [rising, single point]. Under `O=C(CSc1ncn[nH]1)NCCCc1ccccc1` stands 25.1 µM [falling, single point]. Under `CCc1c(C(=O)Nc2ccc(S(=O)(=O)N3CCOCC3)cc2)csc1C` stands 3.98 µM [falling, full curve, poor fit]; under `COCCCn1c2nc3ccccc3nc2c2c(=O)n(-c3ccccc3OC)cnc21`, 10 µM [rising, partial curve]; under `O=C(O)CCN1Cc2ccccc2C1=O`, 3.16 µM [falling, single point]. In the case of `Cc1ccccc1CS(=O)(=O)Cc1ccc(C(=O)NCC2CCCO2)o1` (stereo not given) it was 0.01 µM [falling, full curve, poor fit]. For the compound `COc1cccc(-c2cc(C(=O)NC3CCCC3)no2)c1`, the AC50 was 0.0631 µM [falling, full curve].

As to `CCOc1cc2c(cc1OCC)C(C(=O)O)C(c1cc(OC)c(OC)c(OC)c1)N(C)C2=O` (stereo not given), the AC50 was 0.0631 µM [falling, full curve, poor fit]. Under `COc1ncc2nc(C)c(=O)n(C3CC3)c2n1` stands 15.8 µM [rising, partial curve]. Consider `Cc1ccsc1C(=O)OCc1csc(-c2ccccc2)n1`, for which the AC50 is 1.58 µM [falling, partial curve]. Consider `Cc1ccc(C)c(NC(=O)CSc2nnc(-c3ccncc3)n2N)c1`, for which the AC50 is 2 µM [falling, full curve, poor fit]. In the case of `CCOC(=O)COc1ccc2nsnc2c1` it was 0.794 µM [falling, full curve, poor fit]; in that of `CN(C(=O)c1ccco1)c1nnc(C23CC4CC(CC(C4)C2)C3)s1`, 10 µM [rising, partial curve]; in that of `COc1ccccc1-c1cc(C2CC2)nc(N)c1C#N`, 10 µM [rising, partial curve]. Under `Cc1ccc(N(CC(=O)N2CCc3ccccc32)C2=NC(=O)CS2)cc1` stands 0.126 µM [falling, full curve, poor fit]; under `Cc1cnc(NC(=O)CN(C)S(=O)(=O)c2ccc(Cl)cc2)s1`, 5.01 µM [falling, single point]; under `CCCCCn1c(N(C)Cc2ccccc2)nc2c1c(=O)[nH]c(=O)n2C`, 6.31 µM [rising, partial curve]. With `CNC(=O)c1cc2c(cn1)[nH]c1ccccc12`, the AC50 is 0.0398 µM [rising, full curve, poor fit].

Take `NC(N)=NNC(=O)C(=O)O`: the AC50 is 5.01 µM [rising, single point].

With `CCc1nc(NCCN2CCOCC2)c2oc3ccccc3c2n1`, the AC50 is 12.6 µM [rising, single point]. Under `C[C@@H](/C=C\c1cccc(Oc2ccc(F)cc2)c1)N(O)C(N)=O` stands 0.0794 µM [rising, full curve, poor fit]. In the case of `C=CCn1c(SCn2nnc3ccccc3c2=O)nc2scc(-c3cccs3)c2c1=O` it was 1.58 µM [rising, full curve]. In the case of `O=C(CSc1nc2ccccc2o1)NC(=O)NCc1ccco1` it was 0.126 µM [falling, full curve, poor fit].

Take `COc1ccc(CCn2c(SCC(=O)Nc3cc(C)on3)nc3ccsc3c2=O)cc1OC`: the AC50 was 6.31 µM [rising, partial curve].

As for `CCn1nc(NC(=O)c2ccncc2)c2cc3cc(C)ccc3nc21`, the AC50 is 3.98 µM [rising, partial curve].

On to `CCOc1ccccc1N1CCN(C(=O)c2cc[n+]([O-])cc2)CC1`, for which the AC50 was 5.01 µM [falling, partial curve]. In the case of `Brc1cnc(N2CCOCC2)nc1N1CCCCC1` it was 20 µM [rising, partial curve, poor fit]. In the case of `Cc1ccc(CNc2oc(-c3cccs3)nc2C#N)cc1` it was 5.01 µM [rising, partial curve]. In the case of `COc1ccccc1-c1ccc2ncnc(Nc3ccccc3)c2c1` it was 10 µM [falling, single point]; in that of `Nc1ccc(-n2c(N)c(C(=O)NCc3ccc4c(c3)OCO4)c3nc4ccccc4nc32)cc1`, 10 µM [rising, partial curve]. Take `COCCn1c(SC(C)C(=O)Nc2ccc3c(c2)OCCO3)nc2ccccc2c1=O` (stereo not given): the AC50 was 10 µM [rising, partial curve].

For `CC(C)OC(=O)c1nnn(-c2nonc2N)c1CN1CCCCCC1`, the AC50 was 5.01 µM [falling, single point].

For the compound `Cn1cc(-c2nc3cncnc3n(-c3ccccc3)c2=O)c2ccccc21`, the AC50 was 10 µM [rising, partial curve].

As to `COc1ccc(CCNC2CC(=O)N(CCc3ccc(OC)c(OC)c3)C2=O)cc1OC` (stereo not given), the AC50 is 15.8 µM [rising, single point]. In the case of `COc1ccc(CN(CCN(C)C)c2ccccn2)cc1` it was 31.6 µM [falling, single point].

As to `COc1ccc(N(CC(=O)Nc2ccc(C)cn2)S(=O)(=O)c2c(C)noc2C)cc1`, the AC50 was 5.01 µM [falling, partial curve]. In the case of `Cc1[nH]c2ccccc2c1C(=O)CN1CCCCC1C` (stereo not given) it was 2.51 µM [falling, full curve]; in that of `COCCCn1c(=N)c(C(=O)NCC2CCCO2)cc2c(=O)n3cccc(C)c3nc21` (stereo not given), 10 µM [rising, partial curve]; in that of `CCOC(=O)CSc1nc2c(c(=O)[nH]c(=O)n2C)n1C/C=C(/C)Cl`, 12.6 µM [rising, partial curve].
